In article doi:10.1101/2025.08.29.668156:
These are yes or no findings as the source states them, for the method shown. Binding seen in cells or lysates may run through a third protein. A yes stands for co-enrichment or nearness to the bait. Other partners may have been found. For part of these data: No binding means not detected with the bait. For part of these data: Sequences can lack the tags named with a protein.

The chains behind the UniProt entries cited, without tags or fusion partners.
UniProt P07737: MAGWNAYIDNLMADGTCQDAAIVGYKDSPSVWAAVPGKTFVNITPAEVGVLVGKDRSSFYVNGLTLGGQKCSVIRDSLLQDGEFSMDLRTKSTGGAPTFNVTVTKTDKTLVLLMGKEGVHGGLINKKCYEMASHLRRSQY
UniProt P50552: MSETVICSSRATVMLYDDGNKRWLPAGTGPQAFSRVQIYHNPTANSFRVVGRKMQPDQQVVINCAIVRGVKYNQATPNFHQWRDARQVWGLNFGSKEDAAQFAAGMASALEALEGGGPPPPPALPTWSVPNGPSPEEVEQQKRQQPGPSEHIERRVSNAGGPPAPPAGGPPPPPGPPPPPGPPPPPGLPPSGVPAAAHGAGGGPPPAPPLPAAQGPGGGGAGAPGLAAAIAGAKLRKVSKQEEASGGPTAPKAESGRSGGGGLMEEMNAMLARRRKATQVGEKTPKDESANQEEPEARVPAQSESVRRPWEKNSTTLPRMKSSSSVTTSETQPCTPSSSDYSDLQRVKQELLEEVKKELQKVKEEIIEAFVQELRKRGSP
UniProt P61604: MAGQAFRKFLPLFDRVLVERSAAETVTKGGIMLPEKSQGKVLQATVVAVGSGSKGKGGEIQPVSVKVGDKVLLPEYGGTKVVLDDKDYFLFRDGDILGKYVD

T1: LMNA N-terminally fused to TurboID, P02545
T1 chain: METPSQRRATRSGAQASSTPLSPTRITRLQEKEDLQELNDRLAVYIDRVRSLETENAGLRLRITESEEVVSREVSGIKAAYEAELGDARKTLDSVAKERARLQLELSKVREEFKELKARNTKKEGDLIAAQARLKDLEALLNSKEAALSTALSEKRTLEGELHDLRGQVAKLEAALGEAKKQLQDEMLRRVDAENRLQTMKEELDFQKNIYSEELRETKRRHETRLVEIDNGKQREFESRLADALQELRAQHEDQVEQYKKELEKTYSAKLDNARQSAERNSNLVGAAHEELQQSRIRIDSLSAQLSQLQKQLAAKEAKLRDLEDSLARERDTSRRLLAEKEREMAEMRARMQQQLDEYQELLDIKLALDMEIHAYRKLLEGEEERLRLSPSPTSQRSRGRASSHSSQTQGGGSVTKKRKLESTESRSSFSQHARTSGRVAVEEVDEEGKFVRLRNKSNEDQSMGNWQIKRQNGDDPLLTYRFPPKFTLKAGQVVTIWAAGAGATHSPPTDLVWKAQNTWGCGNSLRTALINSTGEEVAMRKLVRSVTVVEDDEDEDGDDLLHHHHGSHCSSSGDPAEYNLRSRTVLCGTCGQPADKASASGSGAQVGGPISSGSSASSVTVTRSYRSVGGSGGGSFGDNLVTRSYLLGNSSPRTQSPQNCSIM

T2: LMNA N-terminally fused to miniTurbo, P02545
T2 chain: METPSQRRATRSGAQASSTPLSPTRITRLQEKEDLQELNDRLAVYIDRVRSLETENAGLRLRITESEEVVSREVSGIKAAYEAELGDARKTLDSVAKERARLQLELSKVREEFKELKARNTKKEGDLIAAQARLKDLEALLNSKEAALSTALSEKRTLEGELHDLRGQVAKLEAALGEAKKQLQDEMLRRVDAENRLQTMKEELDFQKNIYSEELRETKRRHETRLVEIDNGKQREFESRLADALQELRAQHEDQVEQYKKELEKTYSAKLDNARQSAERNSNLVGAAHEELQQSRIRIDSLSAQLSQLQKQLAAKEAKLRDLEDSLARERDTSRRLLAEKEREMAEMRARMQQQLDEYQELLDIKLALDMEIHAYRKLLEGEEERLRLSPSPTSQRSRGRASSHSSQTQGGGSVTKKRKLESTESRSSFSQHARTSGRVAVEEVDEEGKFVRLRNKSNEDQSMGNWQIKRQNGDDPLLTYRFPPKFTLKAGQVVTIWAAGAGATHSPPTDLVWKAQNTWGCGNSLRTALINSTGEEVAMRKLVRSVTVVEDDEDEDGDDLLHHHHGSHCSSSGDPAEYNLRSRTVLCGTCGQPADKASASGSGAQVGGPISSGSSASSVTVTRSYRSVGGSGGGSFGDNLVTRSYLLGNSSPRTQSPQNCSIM

T3: LMNA N-terminally fused to ultraID, P02545
T3 chain: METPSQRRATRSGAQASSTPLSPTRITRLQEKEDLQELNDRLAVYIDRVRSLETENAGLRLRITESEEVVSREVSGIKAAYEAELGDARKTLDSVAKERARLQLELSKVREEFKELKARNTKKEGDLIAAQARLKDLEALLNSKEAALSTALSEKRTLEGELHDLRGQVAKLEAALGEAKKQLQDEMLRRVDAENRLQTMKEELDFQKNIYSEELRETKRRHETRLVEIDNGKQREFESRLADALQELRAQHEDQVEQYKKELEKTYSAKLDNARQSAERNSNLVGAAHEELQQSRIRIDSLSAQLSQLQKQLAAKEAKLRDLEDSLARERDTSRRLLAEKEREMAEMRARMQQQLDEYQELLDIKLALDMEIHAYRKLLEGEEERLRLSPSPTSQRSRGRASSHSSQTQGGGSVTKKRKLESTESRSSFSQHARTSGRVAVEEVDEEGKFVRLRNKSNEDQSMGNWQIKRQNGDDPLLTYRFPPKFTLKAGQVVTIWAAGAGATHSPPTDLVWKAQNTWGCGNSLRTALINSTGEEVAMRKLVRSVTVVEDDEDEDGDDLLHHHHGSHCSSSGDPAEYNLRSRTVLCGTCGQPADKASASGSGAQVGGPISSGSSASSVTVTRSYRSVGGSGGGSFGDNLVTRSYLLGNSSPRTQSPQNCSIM

T4: LMNA N-terminally fused to BASU, P02545
T4 chain: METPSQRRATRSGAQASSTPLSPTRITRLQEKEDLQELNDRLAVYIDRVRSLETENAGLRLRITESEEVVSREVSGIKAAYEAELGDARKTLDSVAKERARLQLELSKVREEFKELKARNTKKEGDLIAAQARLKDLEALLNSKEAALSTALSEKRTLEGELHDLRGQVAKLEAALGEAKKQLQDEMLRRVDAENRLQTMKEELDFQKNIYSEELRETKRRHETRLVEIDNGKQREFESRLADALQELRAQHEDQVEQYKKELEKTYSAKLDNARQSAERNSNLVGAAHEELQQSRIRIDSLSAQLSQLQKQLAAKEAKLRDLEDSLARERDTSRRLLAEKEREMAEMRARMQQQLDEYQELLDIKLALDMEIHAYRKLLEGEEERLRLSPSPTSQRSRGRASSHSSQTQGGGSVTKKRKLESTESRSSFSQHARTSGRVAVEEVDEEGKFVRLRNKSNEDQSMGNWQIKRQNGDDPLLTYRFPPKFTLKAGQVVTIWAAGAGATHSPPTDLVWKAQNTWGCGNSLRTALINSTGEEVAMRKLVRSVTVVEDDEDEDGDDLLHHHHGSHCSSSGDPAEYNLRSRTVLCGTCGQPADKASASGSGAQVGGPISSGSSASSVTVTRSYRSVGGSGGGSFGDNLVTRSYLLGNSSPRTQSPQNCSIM


Experiments:
Assay in all cases: proximity labelling
miniTurbo-PFN1 = miniTurbo-PFN1 (UniProt P07737)
miniTurbo-VASP = miniTurbo-VASP (UniProt P50552)
[1] = target: T1, LMNA N-terminally fused to TurboID, …; conditions: remark: other sources report otherwise
[2] = target: T2, LMNA N-terminally fused to miniTurbo, …; conditions: remark: other sources report otherwise
[3] = target: T3, LMNA N-terminally fused to ultraID, …; conditions: remark: other sources report otherwise
[4] = target: T4, LMNA N-terminally fused to BASU, P02545; conditions: remark: other sources report otherwise

Row | binding (miniTurbo-PFN1) | binding (miniTurbo-VASP) | binding [1] | binding [2] | binding [3] | binding [4] | Molecule
1 | no binding | no binding | – | – | – | – | HSPE1 (from UniProt P61604 1-102)
2 | – | – | binds | binds | binds | binds | EMD, P50402 1-254 (protein) MDNYADLSDTELTTLLRRYNIPHGPVVGSTRRLYEKKIFEYETQRRRLSPPSSSAASSYSFSDLNSTRGDADMYDLPKKEDALLYQSKGYNDDYYEESYFTTRTYGEPESAGPSRAVRQSVTSFPDADAFHHQVHDDDLLSSSEEECKDRERPMYGRDSAYQSITHYRPVSASRSSLDLSYYPTSSSTSFMSSSSSSSSWLTRRAIRPENRAPGAGLGQDRQVPLWGQLLLFLVFVIVLFFIYHFMQAEEGNPF
